Assay results published in the supplement of paper PMC4604168 (melanoma cell lines).
The other results are listed elsewhere or left out. Single values are uncertain, as repeats are few or missing.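 Cells were imaged in 1,536-well plates, and nuclei stained with an antibody against cleaved PARP were counted against all DNA-stained nuclei to give the apoptosis fraction. Screening doses were chosen to leave most cells alive, and resting and induced cleaved-PARP levels differ strongly between cell lines.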

Columns and labels:
Assay in all cases: cleaved PARP positive nuclei fraction relative to DMSO control; melanoma cells; higher = more apoptosis
Conditions in all cases: library dose: low library concentration; 72 h
501Mel = tested on: 501Mel
A101D = tested on: A101D
A2058 = tested on: A2058
A375 = tested on: A375
C32 = tested on: C32
CBRC013 = tested on: CBRC013 (line from a melanoma biopsy)
CBRC014 = tested on: CBRC014 (line from a melanoma biopsy)
CBRC016 = tested on: CBRC016 (line from a melanoma biopsy)
CBRC017 = tested on: CBRC017 (line from a melanoma biopsy)
CBRC034 = tested on: CBRC034 (line from a melanoma biopsy)
COLO792 = tested on: COLO792
COLO800 = tested on: COLO800
COLO829 = tested on: COLO829
G361 = tested on: G361
IPC-298 = tested on: IPC-298
IST-MEL1 = tested on: IST-MEL1
LB2518-MEL = tested on: LB2518-MEL
LOXIMVI = tested on: LOXIMVI

SMILES: Cn1nnc2c(C(N)=O)ncn2c1=O [temozolomide] + Cn1cc(/C=C2\C(=O)Nc3cccnc32)c2ccccc21 [GW441756] (first compound 2 µM, partner dose 0.4 µM)
- cleaved PARP positive nuclei fraction (501Mel): 84.7%
- cleaved PARP positive nuclei fraction (A101D): 42.6%
- cleaved PARP positive nuclei fraction (A2058): 262%
- cleaved PARP positive nuclei fraction (A375): 144%
- cleaved PARP positive nuclei fraction (C32): 126%
- cleaved PARP positive nuclei fraction (CBRC013): 227%
- cleaved PARP positive nuclei fraction (CBRC014): 116%
- cleaved PARP positive nuclei fraction (CBRC016): 65.7%
- cleaved PARP positive nuclei fraction (CBRC017): 87.2%
- cleaved PARP positive nuclei fraction (CBRC034): 87%
- cleaved PARP positive nuclei fraction (COLO792): 131%
- cleaved PARP positive nuclei fraction (COLO800): 58.2%
- cleaved PARP positive nuclei fraction (COLO829): 116%
- cleaved PARP positive nuclei fraction (G361): 93.2%
- cleaved PARP positive nuclei fraction (IPC-298): 91.9%
- cleaved PARP positive nuclei fraction (IST-MEL1): 60%
- cleaved PARP positive nuclei fraction (LB2518-MEL): 53.9%
- cleaved PARP positive nuclei fraction (LOXIMVI): 43.2%

SMILES: C[C@@H]1CCN(C(=O)CC#N)C[C@@H]1N(C)c1ncnc2[nH]ccc12 + COC(=O)c1sccc1S(=O)(=O)Nc1ccc(Nc2ccccc2)cc1OC [GSK0660] (first compound 1 µM, partner dose 1 µM)
- cleaved PARP positive nuclei fraction (501Mel): 49.1%
- cleaved PARP positive nuclei fraction (A101D): 55.4%
- cleaved PARP positive nuclei fraction (A2058): 137%
- cleaved PARP positive nuclei fraction (A375): 74.1%
- cleaved PARP positive nuclei fraction (C32): 71.6%
- cleaved PARP positive nuclei fraction (CBRC013): 37.1%
- cleaved PARP positive nuclei fraction (CBRC014): 83.5%
- cleaved PARP positive nuclei fraction (CBRC016): 166%
- cleaved PARP positive nuclei fraction (CBRC017): 76.8%
- cleaved PARP positive nuclei fraction (CBRC034): 85.8%
- cleaved PARP positive nuclei fraction (COLO792): 177%
- cleaved PARP positive nuclei fraction (COLO800): 74%
- cleaved PARP positive nuclei fraction (COLO829): 125%
- cleaved PARP positive nuclei fraction (G361): 164%
- cleaved PARP positive nuclei fraction (IPC-298): 64.5%
- cleaved PARP positive nuclei fraction (IST-MEL1): 174%
- cleaved PARP positive nuclei fraction (LB2518-MEL): 76.6%
- cleaved PARP positive nuclei fraction (LOXIMVI): 29.5%

SMILES: CO[C@@H]1[C@H](N(C)C(=O)c2ccccc2)C[C@H]2O[C@]1(C)n1c3ccccc3c3c4c(c5c6ccccc6n2c5c31)C(=O)NC4 [Midostaurin] + CCN(CC)CCCCNc1ncc2cc(-c3cc(OC)cc(OC)c3)c(NC(=O)NC(C)(C)C)nc2n1 [PD173074] (first compound 0.08 µM, partner dose 0.1 µM)
- cleaved PARP positive nuclei fraction (501Mel): 45%
- cleaved PARP positive nuclei fraction (A101D): 182%
- cleaved PARP positive nuclei fraction (A2058): 149%
- cleaved PARP positive nuclei fraction (A375): 169%
- cleaved PARP positive nuclei fraction (C32): 112%
- cleaved PARP positive nuclei fraction (CBRC013): 28.5%
- cleaved PARP positive nuclei fraction (CBRC014): 93.2%
- cleaved PARP positive nuclei fraction (CBRC016): 124%
- cleaved PARP positive nuclei fraction (CBRC017): 71.2%
- cleaved PARP positive nuclei fraction (CBRC034): 230%
- cleaved PARP positive nuclei fraction (COLO792): 113%
- cleaved PARP positive nuclei fraction (COLO800): 82.8%
- cleaved PARP positive nuclei fraction (COLO829): 53.1%
- cleaved PARP positive nuclei fraction (G361): 69.8%
- cleaved PARP positive nuclei fraction (IPC-298): 56.5%
- cleaved PARP positive nuclei fraction (IST-MEL1): 146%
- cleaved PARP positive nuclei fraction (LB2518-MEL): 39.6%
- cleaved PARP positive nuclei fraction (LOXIMVI): 83.8%

SMILES: C=CCn1c(=O)c2cnc(Nc3ccc(N4CCN(C)CC4)cc3)nc2n1-c1cccc(C(C)(C)O)n1 + Cn1cc(/C=C2\C(=O)Nc3cccnc32)c2ccccc21 [GW441756] (first compound 0.02 µM, partner dose 0.4 µM)
- cleaved PARP positive nuclei fraction (501Mel): 110%
- cleaved PARP positive nuclei fraction (A101D): 100%
- cleaved PARP positive nuclei fraction (A2058): 190%
- cleaved PARP positive nuclei fraction (A375): 235%
- cleaved PARP positive nuclei fraction (C32): 117%
- cleaved PARP positive nuclei fraction (CBRC013): 241%
- cleaved PARP positive nuclei fraction (CBRC014): 114%
- cleaved PARP positive nuclei fraction (CBRC016): 89.6%
- cleaved PARP positive nuclei fraction (CBRC017): 79%
- cleaved PARP positive nuclei fraction (CBRC034): 89.7%
- cleaved PARP positive nuclei fraction (COLO792): 172%
- cleaved PARP positive nuclei fraction (COLO800): 114%
- cleaved PARP positive nuclei fraction (COLO829): 39.4%
- cleaved PARP positive nuclei fraction (G361): 82.5%
- cleaved PARP positive nuclei fraction (IPC-298): 77.8%
- cleaved PARP positive nuclei fraction (IST-MEL1): 67%
- cleaved PARP positive nuclei fraction (LB2518-MEL): 119%
- cleaved PARP positive nuclei fraction (LOXIMVI): 123%

SMILES: COc1cc(Nc2ncc(F)c(Nc3ccc4c(n3)NC(=O)C(C)(C)O4)n2)cc(OC)c1OC [Tamatinib] + COc1ccc2c(c1)CCC1C2CCC2(C)C(NCCCCCCN3C(=O)C=CC3=O)CCC12 [U73122] (first compound 0.4 µM, partner dose 0.4 µM)
- cleaved PARP positive nuclei fraction (501Mel): 105%
- cleaved PARP positive nuclei fraction (A101D): 195%
- cleaved PARP positive nuclei fraction (A2058): 126%
- cleaved PARP positive nuclei fraction (A375): 191%
- cleaved PARP positive nuclei fraction (C32): 78.9%
- cleaved PARP positive nuclei fraction (CBRC013): 64.9%
- cleaved PARP positive nuclei fraction (CBRC014): 97.2%
- cleaved PARP positive nuclei fraction (CBRC016): 38.9%
- cleaved PARP positive nuclei fraction (CBRC017): 119%
- cleaved PARP positive nuclei fraction (CBRC034): 101%
- cleaved PARP positive nuclei fraction (COLO792): 158%
- cleaved PARP positive nuclei fraction (COLO800): 145%
- cleaved PARP positive nuclei fraction (COLO829): 108%
- cleaved PARP positive nuclei fraction (G361): 148%
- cleaved PARP positive nuclei fraction (IPC-298): 158%
- cleaved PARP positive nuclei fraction (IST-MEL1): 113%
- cleaved PARP positive nuclei fraction (LB2518-MEL): 100%
- cleaved PARP positive nuclei fraction (LOXIMVI): 37.9%

SMILES: O=C(Nc1cccc(Cl)c1)Nc1ncc(CCNc2ncnc3ccsc23)s1 + O=C1NC(=O)/C(=C/c2ccc(-c3ccc(F)cc3O)o2)S1 [AS252424] (first compound 0.0008 µM, partner dose 1 µM)
- cleaved PARP positive nuclei fraction (501Mel): 75.9%
- cleaved PARP positive nuclei fraction (A101D): 115%
- cleaved PARP positive nuclei fraction (A2058): 85.9%
- cleaved PARP positive nuclei fraction (A375): 233%
- cleaved PARP positive nuclei fraction (C32): 91.1%
- cleaved PARP positive nuclei fraction (CBRC013): 269%
- cleaved PARP positive nuclei fraction (CBRC014): 78.4%
- cleaved PARP positive nuclei fraction (CBRC016): 62.6%
- cleaved PARP positive nuclei fraction (CBRC017): 92.2%
- cleaved PARP positive nuclei fraction (CBRC034): 57.3%
- cleaved PARP positive nuclei fraction (COLO792): 15.9%
- cleaved PARP positive nuclei fraction (COLO800): 105%
- cleaved PARP positive nuclei fraction (COLO829): 83%
- cleaved PARP positive nuclei fraction (G361): 83.5%
- cleaved PARP positive nuclei fraction (IPC-298): 167%
- cleaved PARP positive nuclei fraction (IST-MEL1): 41.7%
- cleaved PARP positive nuclei fraction (LB2518-MEL): 103%
- cleaved PARP positive nuclei fraction (LOXIMVI): 33.3%

SMILES: C[C@]1(c2nc3c(C(N)=O)cccc3[nH]2)CCCN1 [Veliparib] + CCc1ccc(CCOc2ccc(CC3SC(=O)NC3=O)cc2)nc1 [pioglitazone] (first compound 1.4 µM, partner dose 2 µM)
- cleaved PARP positive nuclei fraction (501Mel): 43.8%
- cleaved PARP positive nuclei fraction (A101D): 99.6%
- cleaved PARP positive nuclei fraction (A2058): 148%
- cleaved PARP positive nuclei fraction (A375): 78.7%
- cleaved PARP positive nuclei fraction (C32): 115%
- cleaved PARP positive nuclei fraction (CBRC013): 192%
- cleaved PARP positive nuclei fraction (CBRC014): 116%
- cleaved PARP positive nuclei fraction (CBRC016): 61.7%
- cleaved PARP positive nuclei fraction (CBRC017): 86.1%
- cleaved PARP positive nuclei fraction (CBRC034): 41.9%
- cleaved PARP positive nuclei fraction (COLO792): 78.3%
- cleaved PARP positive nuclei fraction (COLO800): 18.9%
- cleaved PARP positive nuclei fraction (COLO829): 180%
- cleaved PARP positive nuclei fraction (G361): 124%
- cleaved PARP positive nuclei fraction (IPC-298): 79.3%
- cleaved PARP positive nuclei fraction (IST-MEL1): 208%
- cleaved PARP positive nuclei fraction (LB2518-MEL): 204%
- cleaved PARP positive nuclei fraction (LOXIMVI): 28.2%

SMILES: Cc1nc(Nc2ncc(C(=O)Nc3c(C)cccc3Cl)s2)cc(N2CCN(CCO)CC2)n1 [dasatanib] + COc1cc(N2CCC(N3CCN(C)CC3)CC2)ccc1Nc1ncc(Cl)c(Nc2ccccc2S(=O)(=O)C(C)C)n1 [NVP-TAE684] (first compound 0.004 µM, partner dose 0.08 µM)
- cleaved PARP positive nuclei fraction (501Mel): 80.3%
- cleaved PARP positive nuclei fraction (A101D): 277%
- cleaved PARP positive nuclei fraction (A2058): 145%
- cleaved PARP positive nuclei fraction (A375): 189%
- cleaved PARP positive nuclei fraction (C32): 308%
- cleaved PARP positive nuclei fraction (CBRC013): 322%
- cleaved PARP positive nuclei fraction (CBRC014): 117%
- cleaved PARP positive nuclei fraction (CBRC016): 113%
- cleaved PARP positive nuclei fraction (CBRC017): 100%
- cleaved PARP positive nuclei fraction (CBRC034): 366%
- cleaved PARP positive nuclei fraction (COLO792): 189%
- cleaved PARP positive nuclei fraction (COLO800): 153%
- cleaved PARP positive nuclei fraction (COLO829): 104%
- cleaved PARP positive nuclei fraction (G361): 80.6%
- cleaved PARP positive nuclei fraction (IPC-298): 42%
- cleaved PARP positive nuclei fraction (IST-MEL1): 107%
- cleaved PARP positive nuclei fraction (LB2518-MEL): 174%
- cleaved PARP positive nuclei fraction (LOXIMVI): 35.7%

SMILES: O=C(CCCCCCC(=O)Nc1ccccc1)NO [vorinostat] + CCN(CC)CCCCNc1ncc2cc(-c3cc(OC)cc(OC)c3)c(NC(=O)NC(C)(C)C)nc2n1 [PD173074] (first compound 0.08 µM, partner dose 0.1 µM)
- cleaved PARP positive nuclei fraction (501Mel): 56.7%
- cleaved PARP positive nuclei fraction (A101D): 143%
- cleaved PARP positive nuclei fraction (A2058): 88.3%
- cleaved PARP positive nuclei fraction (A375): 63.7%
- cleaved PARP positive nuclei fraction (C32): 118%
- cleaved PARP positive nuclei fraction (CBRC013): 81.7%
- cleaved PARP positive nuclei fraction (CBRC014): 111%
- cleaved PARP positive nuclei fraction (CBRC016): 45%
- cleaved PARP positive nuclei fraction (CBRC017): 89.6%
- cleaved PARP positive nuclei fraction (CBRC034): 97.6%
- cleaved PARP positive nuclei fraction (COLO792): 120%
- cleaved PARP positive nuclei fraction (COLO800): 90.9%
- cleaved PARP positive nuclei fraction (COLO829): 39.4%
- cleaved PARP positive nuclei fraction (G361): 33.1%
- cleaved PARP positive nuclei fraction (IPC-298): 54%
- cleaved PARP positive nuclei fraction (IST-MEL1): 30.6%
- cleaved PARP positive nuclei fraction (LB2518-MEL): 150%
- cleaved PARP positive nuclei fraction (LOXIMVI): 94.2%
